Drawing on patent US20250353921A1, this text covers binding for one molecule.

The assay addresses cynomolgus OX40-ECD-his (cynomolgus). In words: SPR Biacore T200 kinetic screen, scFv-Fc captured, antigen at 1 µM. In general terms: Surface plasmon resonance follows binding to a sensor surface in real time, without labels.

These are yes or no findings as the source states them, for the method shown. A result given as binding can be weak or reduced; the word gives no strength. Tags and fused reporters may be left off the sequences shown.

B1: MAB1 scFv-Fc fusion protein (Fc fusion, not shown: a dimerising Fc or GST)
chain: QVTLKESGPALVKPTQTLTLTCSFSGFSLSTSGMGVGWIRQPPGKALEWIAHIWWDDDKYYNTALKTRLTISKDTSKNQVVLTMTNMDPVDTATYYCARIDWDGFAYWGQGTLVTVSSGGGGSGGGGSGGGGSEIVLTQSPATLSLSPGERATLSCRASSSVSYMHWYQQKPGQAPRPWIYATSNRATGIPARFSGSGSGTDYTLTISSLEPEDFAVYYCQQFGAWPWTFGQGTKVEIKGGGG
Turning to B1, the binding entry is listed as “binds”.
